Test results from patent US12350269B2 (Alexion Pharmaceuticals, Inc., priority 2015, dated 2025).
At least one compound was matched to its structure with a doubt left.

Tested on: DHL4
Assay: DLBCL cell line viability, CellTiter Glo
Format: cell-based
Conditions: read-out: IC50 of Kinase Inhibitor in CellTiter Glo Assay

Q: For `CC(C)(C)c1nc2c3cc[nH]c(=O)c3c3cc(F)ccc3c2[nH]1` [Pan-Jak], which IC50 is on record?
A: Its IC50 is 50 µM.
